We go through seven molecules from PMC2694275.

The chains behind the UniProt entries cited, without tags or fusion partners. Where a name states a change or a piece, a line headed by the entry shows the natural chain unless it says otherwise.
UniProt Q5S006: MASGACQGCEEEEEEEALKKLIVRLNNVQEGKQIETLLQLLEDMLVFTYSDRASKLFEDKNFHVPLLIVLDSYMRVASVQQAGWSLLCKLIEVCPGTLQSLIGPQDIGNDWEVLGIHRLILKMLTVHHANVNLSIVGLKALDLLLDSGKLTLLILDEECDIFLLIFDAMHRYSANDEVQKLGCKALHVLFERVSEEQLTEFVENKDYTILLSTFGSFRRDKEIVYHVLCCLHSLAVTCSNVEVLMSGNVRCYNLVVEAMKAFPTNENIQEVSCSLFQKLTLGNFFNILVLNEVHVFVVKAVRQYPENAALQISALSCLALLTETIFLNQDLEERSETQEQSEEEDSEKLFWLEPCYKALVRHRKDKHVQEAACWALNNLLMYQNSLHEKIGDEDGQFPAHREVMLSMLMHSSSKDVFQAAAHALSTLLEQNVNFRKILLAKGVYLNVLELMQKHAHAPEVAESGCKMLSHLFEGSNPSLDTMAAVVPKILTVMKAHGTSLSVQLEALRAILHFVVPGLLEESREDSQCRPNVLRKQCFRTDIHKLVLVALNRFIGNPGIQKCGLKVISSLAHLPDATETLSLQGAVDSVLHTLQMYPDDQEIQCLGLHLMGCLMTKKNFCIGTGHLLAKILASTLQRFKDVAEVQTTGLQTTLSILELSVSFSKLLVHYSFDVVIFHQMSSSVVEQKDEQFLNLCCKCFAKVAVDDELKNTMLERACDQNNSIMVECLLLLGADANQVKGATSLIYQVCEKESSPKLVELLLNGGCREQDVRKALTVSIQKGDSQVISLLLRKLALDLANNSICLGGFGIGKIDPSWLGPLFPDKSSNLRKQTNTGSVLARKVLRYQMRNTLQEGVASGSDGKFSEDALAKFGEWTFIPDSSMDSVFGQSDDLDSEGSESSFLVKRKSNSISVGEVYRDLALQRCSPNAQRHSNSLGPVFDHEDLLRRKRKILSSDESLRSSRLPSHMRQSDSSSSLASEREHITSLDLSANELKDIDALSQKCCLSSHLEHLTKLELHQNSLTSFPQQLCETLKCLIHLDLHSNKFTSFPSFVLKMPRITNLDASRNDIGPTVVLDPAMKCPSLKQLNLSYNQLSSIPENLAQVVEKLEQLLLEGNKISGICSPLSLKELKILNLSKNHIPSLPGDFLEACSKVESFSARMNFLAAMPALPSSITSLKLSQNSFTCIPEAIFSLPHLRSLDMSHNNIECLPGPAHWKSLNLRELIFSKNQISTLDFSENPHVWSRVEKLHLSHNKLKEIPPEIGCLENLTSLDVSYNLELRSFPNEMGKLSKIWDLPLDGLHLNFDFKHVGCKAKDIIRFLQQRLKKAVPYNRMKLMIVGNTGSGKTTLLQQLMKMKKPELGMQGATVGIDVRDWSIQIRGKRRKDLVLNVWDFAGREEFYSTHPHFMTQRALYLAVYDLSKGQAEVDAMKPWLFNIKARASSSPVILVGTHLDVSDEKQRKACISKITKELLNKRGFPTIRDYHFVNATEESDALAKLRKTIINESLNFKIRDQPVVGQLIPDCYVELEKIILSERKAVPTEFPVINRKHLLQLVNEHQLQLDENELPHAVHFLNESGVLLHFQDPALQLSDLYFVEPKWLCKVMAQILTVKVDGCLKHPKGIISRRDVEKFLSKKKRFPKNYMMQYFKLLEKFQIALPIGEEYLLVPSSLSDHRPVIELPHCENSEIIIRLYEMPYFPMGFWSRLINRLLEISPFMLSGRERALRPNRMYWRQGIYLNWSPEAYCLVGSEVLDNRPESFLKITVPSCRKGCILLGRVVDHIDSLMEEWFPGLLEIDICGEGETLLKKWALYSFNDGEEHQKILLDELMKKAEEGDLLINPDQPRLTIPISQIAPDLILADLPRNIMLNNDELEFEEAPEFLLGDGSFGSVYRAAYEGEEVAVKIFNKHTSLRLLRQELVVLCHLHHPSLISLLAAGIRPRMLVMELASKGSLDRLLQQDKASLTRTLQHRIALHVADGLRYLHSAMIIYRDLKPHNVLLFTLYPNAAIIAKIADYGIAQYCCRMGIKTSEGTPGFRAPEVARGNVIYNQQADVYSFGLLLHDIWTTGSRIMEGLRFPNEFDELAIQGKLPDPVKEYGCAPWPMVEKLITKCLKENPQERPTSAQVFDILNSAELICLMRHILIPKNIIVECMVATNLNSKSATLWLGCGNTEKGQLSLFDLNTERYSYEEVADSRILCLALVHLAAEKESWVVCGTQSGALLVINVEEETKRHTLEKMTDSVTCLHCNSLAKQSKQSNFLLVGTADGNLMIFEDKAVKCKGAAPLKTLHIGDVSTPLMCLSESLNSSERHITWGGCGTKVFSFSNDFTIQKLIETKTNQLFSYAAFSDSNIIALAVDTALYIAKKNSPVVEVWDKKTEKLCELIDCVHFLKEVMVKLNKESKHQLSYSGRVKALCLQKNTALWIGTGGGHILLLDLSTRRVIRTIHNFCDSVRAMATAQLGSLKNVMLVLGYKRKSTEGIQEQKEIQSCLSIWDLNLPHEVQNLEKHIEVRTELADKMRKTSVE
UniProt Q9UNE7: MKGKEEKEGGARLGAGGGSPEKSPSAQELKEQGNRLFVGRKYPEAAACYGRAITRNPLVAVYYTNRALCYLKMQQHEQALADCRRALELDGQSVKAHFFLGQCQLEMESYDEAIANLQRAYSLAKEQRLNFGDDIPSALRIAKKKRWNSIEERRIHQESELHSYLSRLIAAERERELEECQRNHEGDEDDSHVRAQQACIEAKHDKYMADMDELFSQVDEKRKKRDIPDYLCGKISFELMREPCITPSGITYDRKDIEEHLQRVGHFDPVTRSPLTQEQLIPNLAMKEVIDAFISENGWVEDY

Results are given in words; binding and its absence hold for the method and conditions named. For some assays here: In cells and extracts the contact can be indirect. Some entries that bind do so weakly or less than the wild type. For some assays here: Tags and fused reporters may be left off the sequences shown.

The target of test [1] is myc-tagged full-length LRRK2 (mouse) (UniProt Q5S006). The test is described as follows: co-IP; data not shown; full length CHIP(K30A) with full length LRRK2.
For test [2] the target is unchanged. The test is described as follows: co-IP; HEK293 co-transfected with pMyc-LRRK2, pFlag-Hsp90 and pHA-CHIP, 5 µM lactacystin, 48 h; IP with polyclonal anti-myc or rabbit IgG, blot with anti-HA, anti-Flag and anti-myc (Figure 7A).
Test [3] has the same target. The test is described as follows: co-IP; HEK293 co-transfected with myc- and HA-tagged constructs; lysis in 50 mM Tris pH 7.4, 150 mM NaCl, 1% NP-40; IP with polyclonal anti-myc or anti-HA, blot with monoclonal anti-HA or anti-myc; 5 µM lactacystin in Figures 1 and 2; 1 µM geldanamycin for 1 h in Figure 2H and Figure S3.
Test [4] addresses myc-tagged full-length LRRK2(D1994A) (mouse) (UniProt Q5S006). The test is described as above.
The target in test [5] is myc-tagged full-length LRRK2(G2019S) (mouse) (UniProt Q5S006). The test is described as above.
Test [6] addresses myc-tagged full-length LRRK2(R1441C) (mouse) (UniProt Q5S006). The test is described as above.
Test [7] addresses myc-tagged full-length LRRK2 (mouse) (UniProt Q5S006). The test is described as follows: co-IP; HEK293 transfected with only pMyc-LRRK2, 48 h; IP with polyclonal anti-myc or rabbit IgG, blot with anti-CHIP or anti-Hsp90 for the endogenous proteins (Figure 7B).
Test [8] has as its target T1, HA-tagged CHIP_(150–200) (mouse) (UniProt Q9WUD1).
T1 sequence: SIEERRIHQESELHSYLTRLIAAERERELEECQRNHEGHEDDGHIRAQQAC
Description: co-IP; HEK293 co-transfected with myc- and HA-tagged constructs; lysis in 50 mM Tris pH 7.4, 150 mM NaCl, 1% NP-40; IP with polyclonal anti-myc or anti-HA, blot with monoclonal anti-HA or anti-myc; 5 µM lactacystin in Figures 1 and 2; 1 µM geldanamycin for 1 h in Figure 2H and Figure S3.

Test [9] addresses HA-tagged full-length CHIP (UniProt Q9UNE7). Described as above.
In test [10] the target is LRRK2 ROC domain (amino acids 1331–1512) bait in pGBKT7 (mouse) (UniProt Q5S006). The test is described as follows: two-hybrid; Matchmaker GAL4 system; LRRK2 domain baits in pGBKT7 (AH109) mated with a mouse brain cDNA library (Y187); SD/-Leu-Trp-His plus 5 mM 3-AT; retested by co-transformation on SD/-Leu-Trp-His-Ade plus 2 mM 3-AT, X-α-Gal and X-β-Gal assays.
Test [11] concerns the target myc-tagged LRRK2 ROC domain (amino acids 1331–1512) (mouse) (UniProt Q5S006). The test is described as follows: co-IP; HEK293 co-transfected with myc- and HA-tagged constructs; lysis in 50 mM Tris pH 7.4, 150 mM NaCl, 1% NP-40; IP with polyclonal anti-myc or anti-HA, blot with monoclonal anti-HA or anti-myc; 5 µM lactacystin in Figures 1 and 2; 1 µM geldanamycin for 1 h in Figure 2H and Figure S3.

As to “HA-tagged full length CHIP with the K30A point mutation (from UniProt Q9UNE7 1-303) (enzyme)”, the binding result in test [1] is “binds”.
For the molecule “HA-tagged full-length CHIP (from UniProt Q9UNE7 1-303) (enzyme)”, the binding result in [2], in test [3], in [4], in [5] and in test [6] was “binds” throughout.
Regarding “endogenous CHIP of HEK293 cells (from UniProt Q9UNE7 1-303) (enzyme)”, the binding result in test [7] was “binds”.
As to “myc-tagged LRRK2 ROC domain (amino acids 1331–1512) (from UniProt Q5S006 1331-1512) (domain or fragment)”, in test [8], the binding result was “binds”.
With “myc-tagged full-length LRRK2 (from UniProt Q5S006 1-2527)”, in test [9], the binding result is “binds”.

B1: CHIP charged domain, amino acid 150 to amino acid 200, prey clone from the mouse brain cDNA library (domain or fragment, UniProt Q9WUD1 150-200)
chain: SIEERRIHQESELHSYLTRLIAAERERELEECQRNHEGHEDDGHIRAQQAC
For the molecule B1, the binding entry in test [10] is reported as “binds”.

B2: HA-tagged CHIP_(150–200) (domain or fragment, UniProt Q9WUD1 150-200)
chain: SIEERRIHQESELHSYLTRLIAAERERELEECQRNHEGHEDDGHIRAQQAC
In the case of B2, the binding result in [11] is “binds”.
